The target in this test is TY-tagged phosphoenolpyruvate carboxykinase (TY-PEPCK) (Trypanosoma brucei). Put plainly: proximity ligation; Duolink In Situ Red mouse/rabbit kit on PFA-fixed, Triton X-100-permeabilized Δpepck/TY-PEPCK/UGP-MYC.i procyclic cells; rabbit anti-MYC and mouse anti-TY1; cell lines with only one tagged protein as negative controls.

These are yes or no findings as the source states them, for the method shown. Binding seen in cells or lysates may run through a third protein. A result given as binding can be weak or reduced; the word gives no strength. Tags and fused reporters may be left off the sequences shown.

B1: MYC-tagged UDP-glucose pyrophosphorylase (UGP-MYC) (enzyme, UniProt D3HTY9 1-485)
chain: MPLNPPSAFSGAALACLEKMQASGVEEKCIHIFLIQHALVRKGETGYIPEKSISPVESLPFLQGIETKGENTALLRQAVVLKLNGGLGTGMGLNGPKSLLQVKNGQTFLDFTALQLEHFRQVRNCNVPFMLMNSFSTSGETKNFLRKYPTLYEVFDSDIELMQNRVPKIRQDNFFPVTYEADPTCEWVPPGHGDVYTVLYSSGKLDYLLGKGYRYMFISNGDNLGATLDVRLLDYMHEKQLGFLMEVCRRTESDKKGGHLAYKDVIDETTGQTRRRFVLRESAQCPKEDEDSFQNIAKHCFFNTNNIWINLMELKKMMDEQLGVLRLPVMRNPKTVNPQDSQSTKVYQLEVAMGAAISLFDRSEAVVVPRERFAPVKTCSDLLALRSDAYQVTEDQRLVLCEERNGKPPAIDLDGEHYKMIDGFEKLVKGGVPSLRQCTSLTVRGLVEFGADVSVRGNVVIKNLKEEPLIIGSGRVLDNEVVVVE
With B1, the binding result was “binds weakly”.
